# PubChem BioAssay AID504764, Drosophila RNAi Screening Center | 2011
# Aim: 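Genes whose knock-down alters Notch-dependent transcription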 (primary screen)
# System: Drosophila Kc167 cells
# Reagent: long dsRNA against Drosophila genes
# Duration: about 5 days (4 days dsRNA, then 24 h after transfection)
# Conditions: transfection of constitutively active membrane-tethered Notch lacking the extracellular domain, read 24 h later
# Detection: 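Light from a Notch-responsive E(spl)m3 luciferase reporter under active Notch, with control-promoter and no-Notch reporter wells to normalise; raw counts from paired wells a and b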
# Reading the numbers: induced reporter light, run 1, well a and induced reporter light, run 1, well b: higher = more light from the Notch target reporter with active Notch; control promoter light, run 1, well a and control promoter light, run 1, well b: higher = more light from the viral control promoter (cell number, transfection, viability); uninduced reporter light, run 1, well a: higher = more light from the Notch target reporter without active Notch
# Hit rule: 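Wells with low control signal or poorly matching duplicates excluded; duplicates averaged; per source plate, z beyond ±2 for induced/control log2 ratio or beyond ±1.8 for induced/uninduced marks a hit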
# Calls: active = modifier hit (raised or lowered Notch signal); inactive = not a hit
# The deposit covers about 22,000 reagents; below is a random part of those that have a named target and a result. Over the whole deposit, 403 (1.9%) are marked active. 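Unnormalised raw counts per well; ratio z-scores behind the hit calls and whether each hit raises or lowers signal are not deposited.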 No sequences are given here. Not given: the amount of reagent.
gene knocked down,amplicon,"induced reporter light, run 1, well a","induced reporter light, run 1, well b","control promoter light, run 1, well a","control promoter light, run 1, well b","uninduced reporter light, run 1, well a",Call
reb (rebuf),DRSC06308,98715,99660,1.24e5,1.45e5,10528,inactive
Alp2 (Alkaline phosphatase 2),DRSC04354,72115,42060,49350,66780,3350,inactive
DIP-delta (Dpr-interacting protein delta),DRSC10214,2.78e5,2.28e5,4.14e5,2.60e5,12780,inactive
DIP-delta (Dpr-interacting protein delta),DRSC10450,3.07e5,2.10e5,3.20e5,3.08e5,11420,inactive
mthl7 (methuselah-like 7),DRSC10852,1.78e5,1.91e5,3.01e5,2.05e5,10025,inactive
CG18547,DRSC15345,56750,54055,65720,40510,4650,inactive
CG1371,DRSC06409,1.67e5,1.57e5,1.57e5,1.58e5,14505,inactive
Poxm (Pox meso),DRSC16793,94550,87845,69475,81110,6515,inactive
CG3788,DRSC04418,1.99e5,1.98e5,1.95e5,1.73e5,14720,inactive
CR34254 (pseudo),DRSC09562,1.93e5,1.97e5,2.76e5,2.56e5,15335,inactive
Cyp309a2 (Cytochrome P450 309a2),DRSC00526,1.37e5,1.25e5,1.02e5,1.06e5,10025,inactive
mRpL44 (mitochondrial ribosomal protein L44),DRSC12306,1.11e5,1.32e5,67750,71685,7555,inactive
Tctp (Translationally controlled tumor protein),DRSC15649,88095,86095,85325,68945,5455,inactive
CG14696,DRSC14919,96970,97100,91115,60385,6570,inactive
CG7882,DRSC04899,1.70e5,1.43e5,1.67e5,1.45e5,11820,inactive
Pld (Phospholipase D),DRSC04854,1.60e5,1.72e5,1.63e5,1.70e5,13205,inactive
Dhc64C (Dynein heavy chain 64C),DRSC08656,1.12e5,1.27e5,1.06e5,49330,11655,inactive
CG14692,DRSC14915,1.19e5,1.56e5,1.23e5,88760,6585,inactive
glob3 (globin 3),DRSC12261,1.20e5,1.48e5,1.93e5,1.48e5,9855,inactive
tn (thin),DRSC05768,37270,43995,51020,37685,4810,inactive
tn (thin),DRSC06532,90760,97940,1.64e5,2.42e5,12590,active
drn (doctor no),DRSC15147,1.27e5,1.45e5,1.05e5,1.02e5,5530,inactive
CG10265,DRSC05986,1.63e5,1.87e5,1.53e5,2.05e5,13285,inactive
CG11313,DRSC14295,1.27e5,1.00e5,1.66e5,1.86e5,10250,inactive
CG1983,DRSC15410,1.49e5,1.24e5,1.74e5,1.79e5,10970,inactive
CG13250,DRSC11698,1.40e5,1.10e5,1.04e5,93330,10090,inactive
beat-Ib (beaten path Ib),DRSC03490,1.31e5,1.36e5,1.60e5,1.57e5,11565,inactive
Rint1 (RAD50 interactor 1),DRSC11010,1.23e5,90965,72140,26820,7670,inactive
ND-SGDH (NADH dehydrogenase (ubiquinone) SGDH subunit),DRSC11102,34365,38860,41670,31765,2865,inactive
Mst89B,DRSC16748,2.01e5,1.80e5,2.00e5,2.21e5,17490,inactive
RAF2 (RING-associated factor 2),DRSC10443,1.10e5,1.43e5,75390,80445,9910,inactive
RAF2 (RING-associated factor 2),DRSC10454,2.02e5,1.57e5,2.05e5,1.82e5,8895,inactive
dmrt93B (doublesex-Mab related 93B),DRSC15865,1.85e5,1.97e5,2.24e5,2.03e5,14835,inactive
CG4714,DRSC06883,1.32e5,1.67e5,1.99e5,1.41e5,14135,inactive
BigH1 (Histone H1 variant BigH1),DRSC15491,1.36e5,1.23e5,94830,83335,10130,inactive
homer,DRSC03547,1.51e5,1.48e5,1.57e5,2.20e5,11495,inactive
CG30015,DRSC05241,2.01e5,2.06e5,3.05e5,3.43e5,25430,inactive
CG30015,DRSC07027,1.74e5,1.51e5,1.58e5,1.45e5,14430,inactive
CG30015,DRSC07028,1.60e5,1.48e5,2.04e5,2.18e5,13050,inactive
CTCF,DRSC11004,1.07e5,1.24e5,1.03e5,53275,11790,inactive
peng (penguin),DRSC20583,47870,51470,52405,79485,9155,inactive
"IleRS-m (Isoleucyl-tRNA synthetase, mitochondrial)",DRSC10506,77850,1.00e5,1.09e5,1.09e5,4778,inactive
CG13272,DRSC02249,1.36e5,1.32e5,1.38e5,1.55e5,12935,inactive
CG12546,DRSC11676,86720,1.16e5,1.25e5,97320,5075,inactive
CG18628,DRSC10328,1.43e5,1.52e5,2.47e5,1.85e5,11170,inactive
ms(2)34Fe (male sterile (2) 34Fe),DRSC01905,1.36e5,1.63e5,1.44e5,1.71e5,12375,inactive
CG10038,DRSC14178,1.11e5,99810,69465,88360,7892,inactive
Ucp4A (Uncoupling protein 4A),DRSC19996,61885,54505,57470,51040,7100,inactive
CG33234,DRSC07994,2.10e5,1.91e5,1.98e5,2.42e5,17960,inactive
RtGEF (Rho-type guanine nucleotide exchange factor),DRSC03604,56345,46525,1.00e5,91565,2935,inactive

7 successive reagents from above:
gene knocked down,amplicon,"induced reporter light, run 1, well a","induced reporter light, run 1, well b","control promoter light, run 1, well a","control promoter light, run 1, well b","uninduced reporter light, run 1, well a",Call
beat-Ib (beaten path Ib),DRSC03490,1.31e5,1.36e5,1.60e5,1.57e5,11565,inactive
Rint1 (RAD50 interactor 1),DRSC11010,1.23e5,90965,72140,26820,7670,inactive
ND-SGDH (NADH dehydrogenase (ubiquinone) SGDH subunit),DRSC11102,34365,38860,41670,31765,2865,inactive
Mst89B,DRSC16748,2.01e5,1.80e5,2.00e5,2.21e5,17490,inactive
RAF2 (RING-associated factor 2),DRSC10443,1.10e5,1.43e5,75390,80445,9910,inactive
RAF2 (RING-associated factor 2),DRSC10454,2.02e5,1.57e5,2.05e5,1.82e5,8895,inactive
dmrt93B (doublesex-Mab related 93B),DRSC15865,1.85e5,1.97e5,2.24e5,2.03e5,14835,inactive
